# Data source: PubChem BioAssay AID1259308 (NCATS, 2017)
# Screen: 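Knock-downs that increase output of a recombinant reporter protein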 (primary screen)
# System: human HEK293 embryonic kidney cells stably expressing firefly luciferase (HEK-CMV-Luc2-Hygro)
# Reagents: single siRNA against human genes, 0.8 pmol siRNA per well
# Timing: 72 h
# Read-out: 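Luciferase light (ONE-Glo) measured on one replicate plate set and viability (CellTiter-Glo) on the other, scaled to a negative control siRNA, with robust z-scores and luciferase per cell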
# Direction: total luciferase, z-score and total luciferase, % of control: higher = more reporter protein produced; luciferase per cell, z-score: higher = more reporter output per viable cell; viable cells, % of control: higher = more viable cells
# Hit rule: 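An siRNA counts as active if its total luciferase robust z-score exceeds 3; genes with two or more such siRNAs out of three were retested with fresh siRNAs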
# Calls: active = raised luciferase; inactive = no rise
# This is one part, drawn at random, of about 59,000 reagents tested. In the full data, about 1,510 (2.6%) are marked active. 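Calls use total luciferase alone and ignore viability, so some active siRNAs may act by altering cell number.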 A number with no mark means an inactive call. Reagents against one gene are numbered here. No sequences are given here.
gene knocked down,reagent no.,"total luciferase, z-score","total luciferase, % of control","luciferase per cell, z-score","viable cells, % of control"
RNASEH2C (ribonuclease H2 subunit C),1,0.576,93.3,-0.00528,104
RNASEH2C (ribonuclease H2 subunit C),2,-0.301,75.9,-0.223,90
RNASEH2C (ribonuclease H2 subunit C),3,-0.137,79.2,-0.169,92.5
ZMYM1 (zinc finger MYM-type containing 1),1,-0.142,79.1,0.0191,87.9
ZMYM1 (zinc finger MYM-type containing 1),2,-0.104,79.8,-0.545,103
ZMYM1 (zinc finger MYM-type containing 1),3,0.125,84.4,-0.856,118
OR52B4 (olfactory receptor family 52 subfamily B member 4),1,1.07,103,1.48,78.1
OR52B4 (olfactory receptor family 52 subfamily B member 4),2,-0.152,78.9,0.101,85.8
OR52B4 (olfactory receptor family 52 subfamily B member 4),3,0.0231,82.3,-0.0591,93.5

Continued, starting with the last 3 of the part before.
gene knocked down,reagent no.,"total luciferase, z-score","total luciferase, % of control","luciferase per cell, z-score","viable cells, % of control"
OR52B4 (olfactory receptor family 52 subfamily B member 4),1,1.07,103,1.48,78.1
OR52B4 (olfactory receptor family 52 subfamily B member 4),2,-0.152,78.9,0.101,85.8
OR52B4 (olfactory receptor family 52 subfamily B member 4),3,0.0231,82.3,-0.0591,93.5
INPP5J (inositol polyphosphate-5-phosphatase J),1,1.21,106,0.66,99.5
INPP5J (inositol polyphosphate-5-phosphatase J),2,-2.07,40.7,-1.91,75.2
INPP5J (inositol polyphosphate-5-phosphatase J),3,-0.0657,80.6,-0.557,104
TNFSF10 (TNF superfamily member 10),1,-0.772,66.5,-1.06,98.2
TNFSF10 (TNF superfamily member 10),2,-0.848,65,-1.11,97.3
TNFSF10 (TNF superfamily member 10),3,-1.02,61.5,-1.41,99.7
PYCR2 (pyrroline-5-carboxylate reductase 2),1,0.547,92.8,0.273,96.5
PYCR2 (pyrroline-5-carboxylate reductase 2),2,0.226,86.4,-0.496,110
PYCR2 (pyrroline-5-carboxylate reductase 2),3,-0.41,73.7,-0.515,94.4
ZNF280C (zinc finger protein 280C),1,-0.992,62.2,-1.56,105
ZNF280C (zinc finger protein 280C),2,-0.494,72.1,-0.218,85.3
ZNF280C (zinc finger protein 280C),3,0.0679,83.2,0.127,90
MSN (moesin),1,-1.34,55.3,-1.72,97.2
MSN (moesin),2,-1.31,55.9,-1.39,90.1
MSN (moesin),3,4.99 (active),181,3.48,81
